Assay: general procedure: Fmoc solid-phase peptide synthesis; 2-chlorotrityl chloride (CLTR-Cl) resin; Ethyl Indole AM resin
Conditions: whole synthesis, 214 nm, scale of the general procedure 1 g resin (2 g for analogue 4)

Row | Substance | final HPLC purity [%]
1 | [DLys(Ahx-PDP)6, Pro9-NHEt]GnRH | 97
2 | [DCys6]GnRH | 93
3 | [DLeu6, Pro9-NHEt]GnRH | 94.6

From article PMC10607160 (International Journal of Molecular Sciences, 2023)
